From US20260356860A1, “2-SUBSTITUTED 3,4A,5,7,8,8A-HEXAHYDRO-4H-THIOPYRANO[4,3-DJPYRIMIDIN-4-ONES FOR WOUND TREATMENT” (priority 2022, published 2026)
For at least one compound, name, drawing or mass did not settle the structure.

System: HEK293 SuperTOPFlash reporter cells, Wnt promoter
Experiment: HEK CELL Wnt Assay (luciferase reporter)
Assay type: cell-based
Conditions: serial dilutions, with or without 50 ng/mL Wnt3a; 18 h
Description: In order to determine the effect of the compounds of Formula (I) on Wnt inhibition, an in vitro assay using HEK293 SuperTOPFlash reporter cells, with the Wnt promoter driving a luciferase reporter gene, were utilized. 40,000 HEK293 SuperTOPFlash reporter cells were seeded, per well, in a 48 well plate for 24 hours, prior to administration of serial dilutions of the compound of Formula (I) to individual wells. Serial dilutions ranging from […] to 1 nM of the compound of Formula (I) were added with or without 50 ng/mL Wnt3a (Time Biosciences) and allowed to incubate with the reporter cells for 18 hours. Reporter cells with no treatment were used as negative control.

Row | Structure (SMILES) | IC50
1 | O=c1[nH]c(-c2ccc(-c3ccc(Br)nc3)c(F)c2)nc2c1CSCC2 [Compound 20, 2-(4-(6-bromopyridin-3-yl)-3-fluorophenyl)-3,5,7,8-tetrahydro-4H-thiopyrano[4,3-d]pyrimidin-4-one] | 0.4 µM
2 | O=c1[nH]c(-c2ccc(-c3ccnc(Br)c3)cc2)nc2c1CSCC2 [Compound 23, 2-(4-(2-bromopyridin-4-yl)phenyl)-3,5,7,8-tetrahydro-4H-thiopyrano[4,3-d]pyrimidin-4-one] | 0.08 µM
